# Laboratory results from the supplement of paper PMC8728848.
# This is one part of the list.
# B1: OS9-MRH (Homo sapiens), Q13438 (protein)
# chain: IPELLSPMRDAPCLLKTKDWWTYEFCYGRHIQQYHMEDSEIKGEVLYLGYYQSAFDWDDETAKASKQHRLKRYHSQTYGNGSKCDLNGRPREAEVRFLCDEGAGISGDYIDRVDEPLSCSYVLTIRTPRLCPHPLLRPPPSAAPQAI
# Legend:
# Assay in all cases: glycan array binding signal (z-score within array); higher = stronger binding
# Details in all cases: glycan notation: IUPAC condensed, linker removed
# [1] = biological target: Gal(b1-4)GlcNAc(b1-3)Gal(b1-4)GlcNAc(b1-3)Gal(b1-4)GlcNAc(b1-3)Gal(b1-4)GlcNAc(b1-2)Man(a1-3)[Gal(b1-4)GlcNAc(b1-3)Gal(b1-4)GlcNAc(b1-3)Gal(b1-4)GlcNAc(b1-3)Gal(b1-4)GlcNAc(b1-2)Man(a1-6)]Man(b1-4)GlcNAc(b1-4)GlcNAc
# Summary of the method: (§1)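 The binding signal is a Z-score computed within each array and averaged over linkers. Arrays of the same protein sequence at different concentrations or buffers were also averaged together. Data originate from 3228 arrays in the Consortium for Functional Glycomics database, kept only where the protein sequence was available.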
# [2] = biological target: Gal(b1-4)GlcNAc(b1-3)Gal(b1-4)GlcNAc(b1-3)Gal(b1-4)GlcNAc(b1-3)Gal(b1-4)GlcNAc(b1-2)Man(a1-3)[Gal(b1-4)GlcNAc(b1-3)Gal(b1-4)GlcNAc(b1-3)Gal(b1-4)GlcNAc(b1-3)Gal(b1-4)GlcNAc(b1-2)Man(a1-6)]Man(b1-4)GlcNAc(b1-4)[Fuc(a1-6)]GlcNAc
# Summary of the method: as §1
# [3] = biological target: Gal(b1-4)GlcNAc(b1-3)Gal(b1-4)GlcNAc(b1-3)Gal(b1-4)GlcNAc(b1-3)Gal(b1-4)GlcNAc(b1-2)[Gal(b1-4)GlcNAc(b1-3)Gal(b1-4)GlcNAc(b1-3)Gal(b1-4)GlcNAc(b1-3)Gal(b1-4)GlcNAc(b1-6)]Man(a1-6)[Gal(b1-4)GlcNAc(b1-3)Gal(b1-4)GlcNAc(b1-3)Gal(b1-4)GlcNAc(b1-3)Gal(b1-4)GlcNAc(b1-2)Man(a1-3)]Man(b1-4)GlcNAc(b1-4)[Fuc(a1-6)]GlcNAc
# Summary of the method: as §1
# [4] = biological target: Gal(b1-4)GlcNAc(b1-3)Gal(b1-4)GlcNAc(b1-3)Gal(b1-4)GlcNAc(b1-3)Gal(b1-4)GlcNAc(b1-3)Gal(b1-4)GlcNAc(b1-2)Man(a1-3)[Gal(b1-4)GlcNAc(b1-3)Gal(b1-4)GlcNAc(b1-3)Gal(b1-4)GlcNAc(b1-3)Gal(b1-4)GlcNAc(b1-3)Gal(b1-4)GlcNAc(b1-2)Man(a1-6)]Man(b1-4)GlcNAc(b1-4)GlcNAc
# Summary of the method: as §1
# [5] = biological target: Gal(b1-4)GlcNAc(b1-3)Gal(b1-4)GlcNAc(b1-3)Gal(b1-4)GlcNAc(b1-3)Gal(b1-4)GlcNAc(b1-3)Gal(b1-4)GlcNAc(b1-2)Man(a1-3)[Gal(b1-4)GlcNAc(b1-3)Gal(b1-4)GlcNAc(b1-3)Gal(b1-4)GlcNAc(b1-3)Gal(b1-4)GlcNAc(b1-3)Gal(b1-4)GlcNAc(b1-2)Man(a1-6)]Man(b1-4)GlcNAc(b1-4)[Fuc(a1-6)]GlcNAc
# Summary of the method: as §1
# [6] = biological target: Gal(b1-4)GlcNAc(b1-3)Gal(b1-4)GlcNAc(b1-3)Gal(b1-4)GlcNAc(b1-3)Gal(b1-4)GlcNAc(b1-3)Gal(b1-4)GlcNAc(b1-2)[Gal(b1-4)GlcNAc(b1-3)Gal(b1-4)GlcNAc(b1-3)Gal(b1-4)GlcNAc(b1-3)Gal(b1-4)GlcNAc(b1-3)Gal(b1-4)GlcNAc(b1-6)]Man(a1-6)[Gal(b1-4)GlcNAc(b1-3)Gal(b1-4)GlcNAc(b1-3)Gal(b1-4)GlcNAc(b1-3)Gal(b1-4)GlcNAc(b1-3)Gal(b1-4)GlcNAc(b1-2)Man(a1-3)]Man(b1-4)GlcNAc(b1-4)[Fuc(a1-6)]GlcNAc
# Summary of the method: as §1
# [7] = biological target: Gal(b1-4)GlcNAc(b1-3)Gal(b1-4)GlcNAc(b1-3)Gal(b1-4)GlcNAc(b1-3)Gal(b1-4)GlcNAc(b1-3)Gal(b1-4)GlcNAc(b1-3)Gal(b1-4)GlcNAc(b1-2)Man(a1-3)[Gal(b1-4)GlcNAc(b1-3)Gal(b1-4)GlcNAc(b1-3)Gal(b1-4)GlcNAc(b1-3)Gal(b1-4)GlcNAc(b1-3)Gal(b1-4)GlcNAc(b1-3)Gal(b1-4)GlcNAc(b1-2)Man(a1-6)]Man(b1-4)GlcNAc(b1-4)GlcNAc
# Summary of the method: as §1
# [8] = biological target: Gal(b1-4)GlcNAc(b1-3)Gal(b1-4)GlcNAc(b1-3)GalNAc
# Summary of the method: as §1
# [9] = biological target: Gal(b1-4)GlcNAc(b1-3)Gal(b1-4)GlcNAc(b1-3)[Gal(b1-4)GlcNAc(b1-3)Gal(b1-4)GlcNAc(b1-6)]GalNAc
# Summary of the method: as §1
# [10] = biological target: Gal(b1-4)GlcNAc(b1-3)Gal(b1-4)GlcNAc(b1-6)[Gal(b1-3)]GalNAc
# Summary of the method: as §1
# [11] = biological target: Gal(b1-4)GlcNAc(b1-3)Gal(b1-4)[Fuc(a1-3)]GlcNAc(b1-3)Gal(b1-4)[Fuc(a1-3)]GlcNAc
# Summary of the method: as §1
# [12] = biological target: Gal(b1-4)GlcNAc(b1-3)GalNAc
# Summary of the method: as §1
# [13] = biological target: Gal(b1-4)GlcNAc(b1-3)[Fuc(a1-3)GlcNAc(b1-6)]Gal(b1-4)Glc
# Summary of the method: as §1
# [14] = biological target: Gal(b1-4)GlcNAc(b1-3)[Gal(b1-4)GlcNAc(b1-6)]Gal(b1-4)GlcNAc
# Summary of the method: as §1
# [15] = biological target: Gal(b1-4)GlcNAc(b1-3)[GlcNAc(b1-6)]Gal(b1-4)GlcNAc
# Summary of the method: as §1
# [16] = biological target: Gal(b1-4)GlcNAc(b1-6)Gal(b1-4)GlcNAc
# Summary of the method: as §1
# [17] = biological target: Gal(b1-4)GlcNAc(b1-6)GalNAc
# Summary of the method: as §1
# [18] = biological target: Gal(b1-4)GlcNAc(b1-6)[Gal(b1-3)]GalNAc
# Summary of the method: as §1
# [19] = biological target: Gal(b1-4)GlcNAc(b1-6)[Gal(b1-4)GlcNAc(b1-3)]GalNAc
# Summary of the method: as §1
# Gal(b1-4)GlcNAc6P = biological target: Gal(b1-4)GlcNAc6P
# Summary of the method: as §1
# Gal(b1-6)Gal = biological target: Gal(b1-6)Gal
# Summary of the method: as §1
# Gal3S(b1-3)GalNAc = biological target: Gal3S(b1-3)GalNAc
# Summary of the method: as §1
# Gal3S(b1-3)GlcNAc = biological target: Gal3S(b1-3)GlcNAc
# Summary of the method: as §1
binder,measurement,setting,value
B1,glycan array binding signal (z-score),[1],0.553
same,glycan array binding signal (z-score),[2],-0.755
same,glycan array binding signal (z-score),[3],1.51
same,glycan array binding signal (z-score),[4],2.42
same,glycan array binding signal (z-score),[5],0.001
same,glycan array binding signal (z-score),[6],0.95
same,glycan array binding signal (z-score),[7],0.731
same,glycan array binding signal (z-score),[8],-1.07
same,glycan array binding signal (z-score),[9],0.074
same,glycan array binding signal (z-score),[10],-0.064
same,glycan array binding signal (z-score),[11],-0.347
same,glycan array binding signal (z-score),[12],0.542
same,glycan array binding signal (z-score),[13],-0.238
same,glycan array binding signal (z-score),[14],1.16
same,glycan array binding signal (z-score),[15],0.746
same,glycan array binding signal (z-score),[16],-1.58
same,glycan array binding signal (z-score),[17],0.519
same,glycan array binding signal (z-score),[18],-0.075
same,glycan array binding signal (z-score),[19],-0.694
same,glycan array binding signal (z-score),Gal(b1-4)GlcNAc6P,-1.18
same,glycan array binding signal (z-score),Gal(b1-6)Gal,1.66
same,glycan array binding signal (z-score),Gal3S(b1-3)GalNAc,-0.015
same,glycan array binding signal (z-score),Gal3S(b1-3)GlcNAc,1.11

# Two records picked at random from those above, as already listed:
binder,measurement,setting,value
B1,glycan array binding signal (z-score),[18],-0.075
same,glycan array binding signal (z-score),[5],0.001
